Measurements: patent US20150299298A1 (TRELLIS BIOSCIENCE, published 2015)
These are yes or no findings as the source states them, for the method shown.

Amino acid sequences for entries named in this document (tags omitted). Residues count along the entry.
UniProt P02769, residues 25-607: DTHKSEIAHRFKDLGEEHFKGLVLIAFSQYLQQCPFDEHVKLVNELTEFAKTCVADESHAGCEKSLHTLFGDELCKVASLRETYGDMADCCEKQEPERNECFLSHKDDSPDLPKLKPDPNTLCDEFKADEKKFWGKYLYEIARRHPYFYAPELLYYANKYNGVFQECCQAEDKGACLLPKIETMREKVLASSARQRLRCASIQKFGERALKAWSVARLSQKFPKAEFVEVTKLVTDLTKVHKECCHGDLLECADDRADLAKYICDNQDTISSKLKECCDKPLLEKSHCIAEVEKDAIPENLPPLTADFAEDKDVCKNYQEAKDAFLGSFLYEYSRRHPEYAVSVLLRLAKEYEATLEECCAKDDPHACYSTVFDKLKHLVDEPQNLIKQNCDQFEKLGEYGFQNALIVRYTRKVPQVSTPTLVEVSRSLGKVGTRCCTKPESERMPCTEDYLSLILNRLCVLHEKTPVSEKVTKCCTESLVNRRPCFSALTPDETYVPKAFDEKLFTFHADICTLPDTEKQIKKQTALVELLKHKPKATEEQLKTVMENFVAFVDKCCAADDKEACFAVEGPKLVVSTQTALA

Target: BSA (UniProt P02769)
Assay: ELISA on plate-coated antigen, OD 450 nm against TRL1330 [nM]

B1: TRL1330 (antibody, V domains shown)
VH: QVQLVESGTEVKNPGASVKVSCTASGYKFDEYGVSWVRQSPGQGLEWMGWISVYNGKTNYSQNFQGRLTLTTETSTDTAYMELTSLRPDDTAVYYCATDKNWFDPWGPGTLVTVSS
VL: DIVLTQSPSASGSPGQSITISCTGTNTDYNYVSWYQHHPGKAPKVIIYDVKKRPSGVPSRFSGSRSGNTATLTVSGLQTEDEADYYCVSYADNNHYVFGSGTKVTVL
B1 was tested, and the binding was “no binding (tested: about 20 nM)”.
